Data taken from PubChem BioAssay AID504467 (National Center for Advancing Translational Sciences (NCATS), 2011).
Hit rate of the full screen: of about 330,000 compounds, about 7,700 (2.3%) were called active. The shares of active, inactive and inconclusive entries below differ from those in the screen. Calls come from the whole dose curve; as a rule, active = well fitted inhibition curve with a large enough effect; inconclusive = small, poorly fitted or top-dose-only effect, or effect the other way; inactive = flat fitted curve, though single readings scatter. Potencies of inconclusive entries are doubtful fits and often do not repeat.

Assay: qHTS screen for small molecules that inhibit ELG1-dependent DNA repair in human embryonic kidney (HEK293T) cells expressing luciferase-tagged ELG1; note: nearly all actives have a fitted effect of over 55% in size
Conditions: HEK293T ELG1-luciferase reporter, luminescence, 16 h, DNA damage induced by 5-fluorouridine; activity change, negative = inhibition: at 46.1 µM (top of the series)
How it was run: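 DMSO vehicle served as the neutral condition. Each well held 2,000 cells given 5-fluorouridine plus compound; after 16 hr at 37 °C/5% CO2, ONE-Glo was added and luciferase measured 30 min later.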
% is set by controls: 0 for no effect and ±100 for the full control effect; potency is the fitted concentration of half-maximal effect.

Row | Structure (SMILES) | Potency | activity change, negative = inhibition
1 | Cc1cc(=O)oc2cc(NC(=O)c3cc(F)ccc3F)ccc12 | inconclusive: 9.2 µM [activator, partial curve, poor fit] | –
2 | c1ccc2[nH]c(CSc3nc4ccccc4s3)nc2c1 | – | inactive: -2.73%
3 | CC1=C(C(=O)NC2CCCc3c2cnn3-c2ccc(F)cc2F)OCCO1 (configuration not stated) | inconclusive: 3.26 µM [inhibitor, partial curve, poor fit] | –
4 | CC1Cc2ccccc2N1C(=O)COC(=O)c1ccc(O)cc1 (configuration not stated) | inconclusive: 18.3 µM [inhibitor, single point] | –
5 | COC(=O)c1[nH]c2ccccc2c1NC(=O)CN1CCN(c2cccc(OC)c2)C(C)C1 (configuration not stated) | inconclusive: 25.9 µM [inhibitor, single point] | –
6 | CN(C)C(=O)c1nc2ccc(Cl)cn2c1CNCc1cccc(OC(F)(F)F)c1 | inconclusive: 29.1 µM [inhibitor, single point] | –
7 | Cc1ccc(C)c(S(=O)(=O)N2CCN(C(=O)Nc3ccccc3)CC2)c1 | – | inactive: -17.6%
8 | O=C(c1cccc(C(F)(F)F)c1)N(c1ccccn1)C1CCCCC1 | inconclusive: 14.6 µM [inhibitor, partial curve] | –
9 | CC1(c2ccc3ccccc3c2)NC(=O)N(CC(=O)N2CCN(S(=O)(=O)c3ccccc3F)CC2)C1=O (configuration not stated) | inconclusive: 29.1 µM [inhibitor, single point] | –
10 | CC(C)CNc1nc(N)c([N+](=O)[O-])c(N2CCCCCC2)n1 | active: 7.3 µM | –
11 | Cc1cc(/C=C(/C#N)C(=O)O)c(C)n1-c1cccc2ccccc12 | inconclusive: 2.59 µM [inhibitor, partial curve, poor fit] | –
12 | CC(=O)NN1C(=O)c2ccccc2NC1c1ccccc1 (configuration not stated) | inconclusive: 1.64 µM [inhibitor, partial curve, poor fit] | –
13 | CC(C)(C)NC(=O)COC(=O)CCC(=O)c1cccs1 | – | inactive: 9.53%
14 | O=C(Cc1ccccc1)N/N=C/c1ccccc1Cl | inconclusive: 10.3 µM [activator, partial curve, poor fit] | –
15 | Fc1ccc(NC(=S)NCCc2ccc(Cl)cc2)cc1 | inconclusive: 16.4 µM [activator, single point] | –
16 | CCOC(=O)N1CCC(NC(=O)C2=CCN(S(=O)(=O)c3ccccc3)CC2)CC1 | inconclusive: 29.1 µM [inhibitor, single point] | –
17 | COc1cccc(N2C(=NC(=O)CCC3CCCC3)SC3CS(=O)(=O)CC32)c1 (configuration not stated) | inconclusive: 32.6 µM [activator, single point] | –
18 | COC(=O)C1=C(C)N(Cc2ccccc2)C(=NCc2cccc(Cl)c2)N[C@H]1c1cccc(F)c1 | inconclusive: 29.1 µM [inhibitor, single point] | –
19 | O=c1oc2ccccc2cc1-c1nc2ccccc2o1 | inconclusive: 6.31 µM [activator, full curve, poor fit] | –
20 | COc1ccccc1N1CCN(C(=O)C(=O)c2cn(CC(=O)N3CCOCC3)c3ccccc23)CC1 | – | inactive: 5.46%
21 | CC(=O)c1ccc(N2CCN(C(=O)c3cc4c(C)nc5ccccc5c4o3)CC2)cc1 | inconclusive: 2.31 µM [inhibitor, partial curve, poor fit] | –

Row | Structure (SMILES) | Potency | activity change, negative = inhibition
22 | CCn1c(-c2cccc(Br)c2)n[nH]c1=S | – | inactive: -0.639%
23 | O=C(Nc1ccccc1)c1cc(S(=O)(=O)N2CCOCC2)cs1 | inconclusive: 10.3 µM [inhibitor, partial curve] | –
24 | Cc1noc(C(=O)NCC2CCCO2)c1Cl (configuration not stated) | inconclusive: 23.1 µM [activator, partial curve, poor fit] | –
25 | CCc1cccc(Nc2cnn(C34C[C@@H]5C[C@@H](CC(CC(=O)O)(C5)C3)C4)c(=O)c2Cl)c1 | inconclusive: 16.4 µM [activator, partial curve] | –
26 | COc1ccc(-c2oc3ncnc(N)c3c2-c2ccccc2)cc1 | inconclusive: 25.9 µM [inhibitor, single point] | –
27 | Cc1ccccc1N1CCN(C2CCCN(C(=O)c3ccnn3C)C2)CC1 (configuration not stated) | – | inactive: 1.75%
28 | COc1cccc(-c2cc(C(=O)Nc3cc(C)n(Cc4ccc(Cl)cc4)n3)no2)c1 | inconclusive: 4.61 µM [inhibitor, single point] | –
29 | Cc1ccc(S(=O)(=O)N2CCN(C(=O)c3ccc(N4CCCC4)c([N+](=O)[O-])c3)CC2)cc1 | inconclusive: 29.1 µM [inhibitor, single point] | –
30 | COc1ccc(-c2cc(-c3ccccc3)c(C#N)c(S(C)=O)n2)cc1 (configuration not stated) | – | inactive: -16.3%
31 | CCOc1ccc(CN2C(=O)c3ccccc3C2=O)cc1C(=O)Nc1nnc(SCC)s1 | inconclusive: 4.11 µM [inhibitor, full curve] | –
32 | C=CCOC(=O)c1sc(NC(=O)c2ccco2)nc1C | inconclusive: 2.59 µM [activator, full curve] | –
33 | COc1ccc(S(=O)(=O)Nc2ccc(N3CCOCC3)cc2)cc1 | – | inactive: -5.63%
34 | Nc1ncnc2c1ncn2[C@H]1CC[C@@H](CO)O1 | inconclusive: 29.1 µM [activator, single point] | –
35 | CC(CCc1ccccc1)NC(=O)CCNS(=O)(=O)c1ccccc1 (configuration not stated) | – | inactive: -1.38%
36 | Cn1cc(Br)c(C(=O)N/N=C/c2cc3c(cc2Cl)OCO3)n1 | inconclusive: 6.51 µM [activator, partial curve] | –
37 | Cc1cc(-c2ccc(C)c(S(=O)(=O)NCC3CCN(Cc4ccccc4F)CC3)c2)on1 | inconclusive: 20.6 µM [inhibitor, partial curve, poor fit] | –
38 | COc1ccc(-c2noc(Cc3ccccc3OC)n2)cc1 | inconclusive: 18.4 µM [activator, partial curve] | –
39 | COc1ccc(NC(=O)C(c2ccc(C)cc2)N(C)C(=O)c2cnccn2)cc1 (configuration not stated) | – | inactive: 4.05%
40 | COc1cccc(-c2csc(N3CCN(CC(=O)NNC(=O)c4ccc(Cl)cc4)CC3)n2)c1 | inconclusive: 20.6 µM [inhibitor, single point] | –
41 | CC1=CC(C)(C)N=C(Nc2ccc(C)cc2)S1 | inconclusive: 18.4 µM [activator, single point] | –
42 | O=C(Nc1cccc(F)c1)N1CC=C(n2c(=O)[nH]c3ccccc32)CC1 | inconclusive: 18.4 µM [inhibitor, single point] | –

Three entries from above, tab-delimited:
Row	Structure (SMILES)	Potency	activity change, negative = inhibition
27	Cc1ccccc1N1CCN(C2CCCN(C(=O)c3ccnn3C)C2)CC1 (configuration not stated)	–	inactive: 1.75%
28	COc1cccc(-c2cc(C(=O)Nc3cc(C)n(Cc4ccc(Cl)cc4)n3)no2)c1	inconclusive: 4.61 µM [inhibitor, single point]	–
29	Cc1ccc(S(=O)(=O)N2CCN(C(=O)c3ccc(N4CCCC4)c([N+](=O)[O-])c3)CC2)cc1	inconclusive: 29.1 µM [inhibitor, single point]	–
